Data from US20220378807A1, “DELIVERY OF A COOLING AGENT TO THE PHARYNGEAL-ESOPHAGEAL SURFACE” (priority 2019, published 2022).
For at least one compound, name, drawing or mass did not settle the structure. Some entries share one result that the patent states for a list of compounds.

Protein sequences, listed by entry. Tags and fused reporters are not part of them.
UniProt Q7Z2W7, whole entry: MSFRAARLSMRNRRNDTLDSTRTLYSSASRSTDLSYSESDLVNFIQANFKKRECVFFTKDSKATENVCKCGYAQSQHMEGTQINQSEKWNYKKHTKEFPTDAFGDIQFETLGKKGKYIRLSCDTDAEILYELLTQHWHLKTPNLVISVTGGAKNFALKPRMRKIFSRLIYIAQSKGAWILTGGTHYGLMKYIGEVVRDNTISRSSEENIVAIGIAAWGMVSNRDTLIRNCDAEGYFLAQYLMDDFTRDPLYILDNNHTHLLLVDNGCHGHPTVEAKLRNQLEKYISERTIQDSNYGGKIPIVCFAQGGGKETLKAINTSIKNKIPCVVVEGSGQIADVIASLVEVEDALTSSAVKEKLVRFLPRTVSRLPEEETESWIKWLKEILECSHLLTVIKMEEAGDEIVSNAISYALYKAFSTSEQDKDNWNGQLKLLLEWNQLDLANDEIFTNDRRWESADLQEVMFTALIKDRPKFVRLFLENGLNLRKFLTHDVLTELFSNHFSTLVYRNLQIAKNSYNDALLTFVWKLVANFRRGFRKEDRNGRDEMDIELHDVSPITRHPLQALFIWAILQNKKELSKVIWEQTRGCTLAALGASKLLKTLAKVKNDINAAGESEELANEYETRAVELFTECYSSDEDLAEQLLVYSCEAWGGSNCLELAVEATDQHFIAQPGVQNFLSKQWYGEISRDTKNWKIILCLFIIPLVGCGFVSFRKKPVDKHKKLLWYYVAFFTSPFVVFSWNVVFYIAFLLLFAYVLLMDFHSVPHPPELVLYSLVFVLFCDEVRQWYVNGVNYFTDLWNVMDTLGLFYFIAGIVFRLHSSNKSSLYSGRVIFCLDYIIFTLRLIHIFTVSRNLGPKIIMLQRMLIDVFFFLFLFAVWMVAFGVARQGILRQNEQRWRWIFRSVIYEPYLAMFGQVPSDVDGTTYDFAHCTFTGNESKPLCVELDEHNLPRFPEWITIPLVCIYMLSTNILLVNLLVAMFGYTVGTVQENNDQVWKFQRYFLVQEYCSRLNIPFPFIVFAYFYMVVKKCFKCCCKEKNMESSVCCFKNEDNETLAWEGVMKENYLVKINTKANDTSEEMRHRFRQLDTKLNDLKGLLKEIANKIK

Legend:
[1] = molecular target: T1, cloned hTRPM8 channel (human TRPM8 gene, expressed in CHO cells) (Homo sapiens, UniProt Q7Z2W7); assay: TRPM8 agonist activity, Fluo-8 calcium FLIPR assay; type: cell-based
T1 construct: host or cells: CHO cells
Experimental: In the first set of data, the potency and in vitro effects of test compounds were evaluated on cloned hTRPM8 channel (encoded by the human TRPM8 gene, expressed in CHO cells) using a Fluo-8 calcium kit and a Fluorescence Imaging Plate Reader (FLIPR^TETRATM) instrument. […] Test solutions were in HEPES-buffered saline, 384-well plates, and placed into the FLIPR instrument (Molecular Devices Corporation, Union City, Calif., USA). […] The test cells were Chinese Hamster Ovary (CHO) cells stably transfected with human TRPM8 cDNAs. The concentration-response data were analyzed via FLIPR Control software and fitted to a Hill equation for the EC50.

[2] = tested on: Oral Cavity and Pharynx; assay: Study 2: sensory qualities of compounds applied to oral cavity and pharynx; type: in vivo, human; conditions: 5 mg/mL; for sensations produced (cooling intensity, cold discomfort, adverse taste): ~0.8 mL per dose to base of tongue, four volunteers
Experimental: Tests were on four volunteers, with 3 to 5 trials per substance. Compounds were prepared in cherry-flavored Shaped-Gel at 5 mg/mL and administered ˜0.8 mL per dose with a 2 mL plastic vial to the base of the tongue. The subjects asked to rate the sensations for cooling intensity, cold discomfort and adverse taste.

[3] = tested on: throat (Adam's apple, jugular notch, upper chest); type: in vivo, human; set-up: key to Jugular Notch / Sternum: cooling rated on a 0-3 scale; conditions: Shaped-Gel; for Adam's Apple: cooling felt at Adam's apple
Experimental: Shaped-Gel having total weight of 0.4 to 1.2 g containing 0.4 to 1.5% by weight (5 mg/g to 15 mg/g) are prepared and tested. The following examples illustrate the invention, but are not intended to limit the scope of the present invention. A Shaped-Gel in accordance with the present invention was prepared with the following composition.
Shaped-Gels were prepared by these procedures. First step, the cooling agent was accurately weighed and place in a 60 mL plastic container. Then glycerol, water, and gelatin was added to the container and centrifuged for 2 min in a SpeedMixer (FlackTek, Inc.) at 3000 rpm. Then gelatin powder was added and the mixture centrifuged for 3 min. The container was warmed by placing it in a beaker containing hot water (80-85° C.) for 15 min. The container was then centrifuged for 5 min. The liquid mix was cooled and dispensed onto silicon molds with a plastic dropper, and placed in a refrigerator. After one hour, the gels were solidified, removed from the mold with a plastic tweezer, weighed and placed on wax paper and later stored in blister pockets. […] In preliminary studies, the shape of the Shaped-Gel was varied. Square, rectangular, spherical, hemispherical, toroidal, and pentagram Shaped-Gels were prepared at sizes ranging from 0.4 to 1.2 g. A flat shape wherein the shortest diameter was about 20% of the longest axis was preferred because it could be placed flat on the back of the tongue. A Shaped-Gel shaped as a rectangular prism of 2.75 mm×15 mm×15 mm=0.63 cm3 and weighing ˜0.6 g was acceptable to subjects. A toroid, much like a “LiveSaver” mint was also acceptable if the size was ˜0.8 g. Test Panel: The volunteers for testing the Shaped-Gel were six subjects, four males and two females, aged 50 to 76 years. Each Shaped-Gel was tested for at least four trials in at least three subjects. The concentration of the cooling agent in the Shaped-Gel varied from 0.5 to 2%. The duration of observation for each trial usually lasted for not more than 1.5 hours. Subjects were instructed to swallow the Shaped-Gel with a sip of […] water. Cooling sensations were rated on a scale of 0, 1, 2, 3, at intervals of 3 min, 5 min, and then at 10 min intervals. If a cooling value exceeded 2, the subject noted whether the cooling was felt at the level of the Adam's apple, jugular notch or upper chest. Ancillary effects were also recorded.

For `CCCCCCC[P@@](=O)(C(C)C)C(C)CC` (stereo partly shown) [3,4-7, 1-(Isopropyl-sec-butyl)-phosphinoyl-heptane], the “TRPM8 potency / bioactivity in words” value [1] was “weak” and the “sensations produced (cooling intensity, cold discomfort, adverse taste)” value [2] was “cold, icy cold, and adverse tastes”.

`CCCCCCP(=O)(C(C)CC)C(C)CC` (stereo not shown) [DAPA-2-6, 1-Di(sec-butyl)-phosphinoyl-hexane] was tested, and the “unpleasant taste, lasting time” value [2] was “at least 15 min”.

In the case of `COc1ccc(NC(=O)[C@@H]2C[C@H](C)CC[C@H]2C(C)C)cc1` [WS-12], the “Adam's Apple” value [3] was “+”.

`CCCCCCCCP(=O)(C(C)CC)C(C)CC` (stereo not shown) [DAPA-2-8, 1-Di(sec-butyl)-phosphinoyl-octane] was tested, and the “unpleasant taste, lasting time” value [2] was “at least 15 min”.

For `CC1CCC(C(C)C)C(C(=O)OCC(O)CO)C1` (stereo not shown) [WS-30], the “Adam's Apple” value [3] was “++”, the “Jugular Notch” value ([3]; cooling felt at jugular notch) was “+” and the Sternum ([3]; cooling felt at sternum) was “+”.

For `CCCCCCCP(=O)(C(C)CC)C(C)CC` (stereo not shown) [DAPA-2-7, 1-Di(sec-butyl)-phosphinoyl-heptane], the “unpleasant taste, lasting time” value [2] was “at least 15 min”.

`CCCCCCCCP(=O)(C(C)C)C(C)C` [DIPA-1-8, 1-Di(isopropyl)-phosphinoyl-octane] was tested, and the “unpleasant taste, lasting time” value [2] was “at least 15 min”.

In the case of `CCCCCCCP(=O)(C(C)C)C(C)C` [DIPA-1-7, 1-Di(isopropyl)-phosphinoyl-heptane], the “unpleasant taste, lasting time” value [2] was “at least 15 min”.

In the case of `CCCCCC[P@@](=O)(C(C)C)[C@@H](C)CC` [3,4-6, 1-(Isopropyl-sec-butyl)-phosphinoyl-hexane], the “TRPM8 potency / bioactivity in words” value [1] was “weak” and the “sensations produced (cooling intensity, cold discomfort, adverse taste)” value [2] was “robust cooling”.
